Some of these results come from one statement about several compounds together. At least one compound was matched to its structure with a doubt left.
System: catalase (Merck)
Test: Inactivation of catalase, residual H2O2 laboratory test
Format: biochemical
Settings: catalase 26 units/ml
Description: Freshly prepared biofilm inhibiting substance was added to the appropriate flasks containing diluted catalase at a pre-defined feed rate. The contents of the containers were mixed for 60 minutes at room temperature prior to addition of H2O2 (to a final H2O2 concentration of 3.5 g/l). After addition of the H2O2, the mixture was allowed to mix for 30 minutes at room temperature, at which point H2O2 residues were measured in each flask in accordance with the Dr. Lange Cuvette Test LCW 058, measured with LASA 20 (based on Jander/Blasius: Lehrbach der Analytischen and Praparative Anorganischen Chemie, as described in the Handbook of Photometrical Operation Analysis (October 1997)).
Sodium hypochlorite was diluted in DI water to a final concentration of 6000 ppm expressed as total chlorine. Ammonium bromide solution (equimolar to 1.1 mole of the diluted sodium hypochlorite solution, 10% excess on a molar basis) and ammonium chloride solution (equimolar to 1.1 mole of the diluted hypochlorite solution, 10% excess on a molar basis) were prepared. The diluted hypochlorite (50 ml) was added dropwise to 50 ml of the appropriate ammonium salt while the pH was constantly measured. The biofilm inhibiting substance concentration in the produced stock solution was immediately measured and the biofilm inhibiting substance at the appropriate feed level was immediately added to the test flasks.

NCl [Chloramine, monochloroamine, reference compound]
dosage at which catalase was completely inactivated: ≥ 60 ppm as total Cl2
